Results as given in PubChem BioAssay AID1259415 (National Center for Advancing Translational Sciences (NCATS), 2018).
The campaign covered roughly 410,000 compounds. About 18,000 (4.4%) were called active. The inconclusive results got no clear call from the source; some entries with a clear call stand among them for comparison. No stated cut-off is given here; in the data, active means activity change below about -60%; inconclusive means no clear call, values can overlap the other calls; inactive means above about -39%.
On the % scale 0 is the no-effect control and ±100 the full control effect.

Test: qHTS Assay for inhibitors of the human cytomegalovirus (HCMV)
Settings: HFF cells, HCMV-luciferase reporter, 72 h; at 57.5 µM; stronger effect = lower value
In short: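 Cell-based, HFFs, 1000 cells/well, 16 h 37C; cpds in DMSO + HCMV-luc, MOI 1 PFU/cell; 72 h 37C; OneGlo luminescence after 5 min RT; norm. to buffer vs Salinomycin 10uM.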
For Cc1onc(-c2ccccc2Cl)c1C(=O)N1CCc2ccccc2C1, the activity change, negative = inhibition was inactive: 1.76%. In the case of C=Cc1ccc(Cn2c(C(=O)O)c(CNCc3ccccc3)c3ccc(C)cc32)cc1, the activity change, negative = inhibition is reported as active: -102%. With Cc1ccc(C)c(NC(=O)c2ccccc2C(=O)c2ccccc2)c1 the activity change, negative = inhibition was inconclusive: -48.3%. For CC(=O)C1=NN(c2ccccc2)C(c2cccs2)N1c1ccc(N(C)C)cc1 (centres undefined), the activity change, negative = inhibition was active: -80.5%. In the case of CNC(=O)C1CCC(Cn2c(=O)c3sccc3n(CC(=O)NCc3ccc(F)cc3)c2=O)CC1 (centres undefined), the activity change, negative = inhibition is reported as inactive: 33.4%. In the case of C/C(N)=C(/C#N)C(=O)COC(=O)[C@@H](NC(=O)c1ccccc1Cl)C(C)C, the activity change, negative = inhibition is reported as inconclusive: -40.2%. For COc1ccc(NC(=O)Nc2ccc3c(c2)C(=O)N([C@H](C)CO)C[C@H](C)[C@H](CN(C)C)OCCCC[C@@H](C)O3)cc1, the activity change, negative = inhibition was inactive: -2.73%. In the case of CC12CCC(=O)N1C(C(=O)Nc1nc(-c3cc(F)ccc3F)cs1)CS2 (centres undefined), the activity change, negative = inhibition is reported as inconclusive: -40.2%. For NS(=O)(=O)c1ccc(NC(=O)COC(=O)c2cc(Cl)ccc2[N+](=O)[O-])cc1, the activity change, negative = inhibition was inconclusive: -50.7%. With CCC(=NCc1ccc2c(c1)OCO2)c1c(O)n(C2CCCCC2)c(=O)[nH]c1=O the activity change, negative = inhibition was inconclusive: -53%. With CCOC(=O)COc1ccccc1C1Nc2ccccc2C(=O)N1c1cccc(Cl)c1 (centres undefined) the activity change, negative = inhibition was inconclusive: -41.1%. For CCNC(=O)C1CCCN(C(=O)c2ccc(C(F)(F)F)cc2)CC1 (centres undefined), the activity change, negative = inhibition was inconclusive: -55.8%. In the case of COC(=O)c1c(NC(=O)CN2CCCc3ccccc32)sc(C)c1C, the activity change, negative = inhibition is reported as inconclusive: -40.4%. With O=C1CCc2cc(S(=O)(=O)Nc3ccc(F)cc3)cc3c2N1CC3 the activity change, negative = inhibition was inactive: 3.36%. In the case of COc1ccc(C(=O)Nc2ccccc2C(=O)N2CCCCCC2)cc1, the activity change, negative = inhibition is reported as inconclusive: -55.3%. In the case of C=CCn1c(SCC(=O)NC(=O)NC2CCCC2)nnc1C1CCCCC1, the activity change, negative = inhibition is reported as inconclusive: -44.4%. With CCOC(=O)c1c(S(=O)(=O)NCC(=O)NCc2cccc(C)c2)c(C)n(C)c1C the activity change, negative = inhibition was inconclusive: -40.5%. In the case of CC(=O)Nc1cccc(Oc2cc(C#N)c(C#N)cc2N2CCOCC2)c1, the activity change, negative = inhibition is reported as inconclusive: -41.7%. With Cc1ccc(CS(=O)(=O)c2ncc(Cl)c(C(=O)Nc3nc4ccc(F)cc4s3)n2)cc1 the activity change, negative = inhibition was active: -93.3%. With Cc1ccc(C)c(N2CN(CCC3=CCCCC3)CNC2=S)c1 the activity change, negative = inhibition was inconclusive: -45.3%. For COc1ccc(N=c2scc(-c3ccc(OC)cc3)n2CCO)cc1, the activity change, negative = inhibition was active: -74%. In the case of Cc1cc(Cl)nc(-c2ccccc2)n1, the activity change, negative = inhibition is reported as inconclusive: -44.5%. With O=C(/C=C/c1ccccc1)CC(O)(c1ccccc1)C(F)(F)F (centres undefined) the activity change, negative = inhibition was active: -102%. With CC(CC(=O)Nc1ccc(S(=O)(=O)N2CCOCC2)cc1)c1ccccc1 (centres undefined) the activity change, negative = inhibition was inactive: -15.8%. With COc1nc(Nc2ccc(O)cc2)nc(OC(C(F)(F)F)C(F)(F)F)n1 the activity change, negative = inhibition was inconclusive: -40.7%. With O=C(CCC(=O)N1CCCC1)Nc1nnc(C(F)(F)F)s1 the activity change, negative = inhibition was inactive: 16.9%. For Cc1ccc(S(=O)c2ccc(NC(=O)C3CC3)cc2C#N)cc1 (centres undefined), the activity change, negative = inhibition was active: -65.7%. For CC(=O)Nc1ccccc1/C=C/c1ccc2c(C)ccc(O)c2n1, the activity change, negative = inhibition was inactive: -27.8%. For Cc1nc2nncn2c(NCc2ccc(F)cc2)c1C, the activity change, negative = inhibition was inconclusive: -44.5%. With CC(=O)Nc1ccc2c(c1)CCCC2=O the activity change, negative = inhibition was inactive: 16.2%. With Cc1cc(C=C(C#N)C#N)ccc1N1CCCC1 the activity change, negative = inhibition was inconclusive: -55.6%. With Cc1nc(-c2ccc(S(=O)(=O)Nc3ccc(S(N)(=O)=O)cc3)cc2)co1 the activity change, negative = inhibition was inactive: -12%. In the case of O=C(CCNC(=O)c1ccccc1Cl)NCCC1=CCCCC1, the activity change, negative = inhibition is reported as inactive: -16.6%. With COc1ccc(CCNC(=O)CSc2nc(-c3ccc(F)cc3)cc(C(F)(F)F)n2)cc1OC the activity change, negative = inhibition was inactive: -16.4%. In the case of COCCCn1c(C(=O)NCCN2CCOCC2)cc2c(=O)n3ccccc3nc21, the activity change, negative = inhibition is reported as inconclusive: -45.2%. With CCCN1C[C@H](CSC)C[C@@H]2c3cccc4[nH]cc(c34)C[C@H]21 the activity change, negative = inhibition was inconclusive: -41.7%. In the case of COc1ccc(-c2c(-c3cc(OC)cc(OC)c3)n(C)c3ccc(-c4ccc5cc[nH]c5c4)cc23)cc1, the activity change, negative = inhibition is reported as inactive: 0.825%. For c1ccc(-c2nnc(N3CCN(c4ccccn4)CC3)c3ccccc23)cc1, the activity change, negative = inhibition was inconclusive: -45.2%. In the case of S=C(NCc1ccccc1Cl)NC1CCCC1, the activity change, negative = inhibition is reported as inactive: -15.1%. In the case of Cc1cc2ccccn2c1C(=O)c1cc([N+](=O)[O-])cc([N+](=O)[O-])c1, the activity change, negative = inhibition is reported as inconclusive: -48.4%. For CC(=O)c1c(C)[nH]c(C(=O)OCC(=O)NCCC2=CCCCC2)c1C, the activity change, negative = inhibition was inconclusive: -46%. For COc1ccc(N2CCN(c3oc(-c4ccco4)nc3C#N)CC2)cc1, the activity change, negative = inhibition was inactive: -26%. For Cc1nnsc1C(=O)N/N=C/c1ccc2ccccc2c1O, the activity change, negative = inhibition was active: -99.6%. In the case of CCCCN(Cc1ccccc1)C(=O)CCN1C(=O)C2C3C=CC(C3)C2C1=O (centres undefined), the activity change, negative = inhibition is reported as inconclusive: -45.2%. With CCCCN(C(=O)C1CSC2(C)CCC(=O)N12)c1c(N)n(CC(C)C)c(=O)[nH]c1=O (centres undefined) the activity change, negative = inhibition was inconclusive: -44.8%. For CCCc1cc(C(=O)Nc2ccc(Cl)cn2)cs1, the activity change, negative = inhibition was inconclusive: -43%. For CCN1CCN(C(c2cccc(F)c2)c2c(O)cc(C)n(Cc3ccco3)c2=O)CC1 (centres undefined), the activity change, negative = inhibition was inactive: 23%. With COc1ccc(OC)c(CCNC(=O)c2cnn(-c3ccccc3)c2C2CCN(C(=O)OC(C)(C)C)CC2)c1 the activity change, negative = inhibition was inconclusive: 0%. For Cc1ccc(C)c2[nH]c(=O)c(CCNC(=O)c3ccc(S(=O)(=O)N4CCOCC4)cc3)cc12, the activity change, negative = inhibition was inactive: 7.43%. For CCCCNC(=O)C1(C)CCCCN1C(=O)c1c(Cl)cccc1Cl (centres undefined), the activity change, negative = inhibition was inconclusive: -54.7%. With OCCN(CC(O)COc1ccccc1)CC(O)Cn1ccc2ccccc21 (centres undefined) the activity change, negative = inhibition was inconclusive: -52.2%. For OCC1OC(n2ccc3c2ncn2ncnc32)C(O)C1O (centres undefined), the activity change, negative = inhibition was active: -94.9%. For C/C=C(/C)C(=O)O[C@@H]1c2cc3c(c4c2[C@@]2(CO4)C(=O)C(OC)=C(OC)C=C2C[C@@H](C)[C@H]1C)OCO3, the activity change, negative = inhibition was inconclusive: -54.9%. In the case of O=C(O)CC1S/C(=N/N=C/c2ccc(-c3ccc(Cl)c([N+](=O)[O-])c3)o2)NC1=O (centres undefined), the activity change, negative = inhibition is reported as inconclusive: -44.2%. With O=C(NC(=S)NCCCN1CCOCC1)c1ccc([N+](=O)[O-])cc1 the activity change, negative = inhibition was inconclusive: -44.7%. With O=c1[nH][nH]c2c([N+](=O)[O-])ccc(F)c12 the activity change, negative = inhibition was active: -61.5%. With N#Cc1c(SCC(=O)Nc2nccs2)nc2c(c1-c1ccco1)CCCC2 the activity change, negative = inhibition was inconclusive: -55.3%. In the case of CN1C(=O)N(C)C(=O)C2(Cc3ccccc3N3CCOCC32)C1=O (centres undefined), the activity change, negative = inhibition is reported as inactive: 29.4%. For CN(CC1CCCO1)S(=O)(=O)c1ccc(C(=O)Nc2nc3cc4c(cc3s2)OCO4)cc1 (centres undefined), the activity change, negative = inhibition was active: -85.4%. With CC(C)NC(=O)C1CCN(C2CCN(C(=O)c3scc4c3CCCC4)CC2)CC1 the activity change, negative = inhibition was inactive: -12.3%. For Cc1cc(SC(C)C(=O)Nc2c(C)n(C)n(-c3ccccc3)c2=O)nc2ccccc12 (centres undefined), the activity change, negative = inhibition was inactive: 11.6%. For O=C(Nc1ccc(S(=O)(=O)N2CCCCC2)cc1)C1CCN(C(=O)c2ccc(F)cc2)CC1, the activity change, negative = inhibition was inconclusive: -52%. For Nc1c(Cl)ncnc1N/N=C/c1ccc2ccccc2n1, the activity change, negative = inhibition was active: -97.9%. With CC(C)C(=O)NC(c1ccccc1)c1cc([N+](=O)[O-])c2cccnc2c1O (centres undefined) the activity change, negative = inhibition was inactive: -0.973%. In the case of Cc1ccc2nc(SCC(=O)Nc3ccccc3N3CCOCC3)c(C#N)cc2c1, the activity change, negative = inhibition is reported as inconclusive: -42.2%. In the case of CN(C)CCNC(=O)C(=O)NCC1OCCN1S(=O)(=O)c1cc(F)ccc1F (centres undefined), the activity change, negative = inhibition is reported as active: -61%. In the case of C=CCN1CCN(C(=O)c2c(-c3ccccc3)noc2C)CC1, the activity change, negative = inhibition is reported as inactive: 71%. For COC(=O)C1=C(C)NC(C)=C(C(=O)OCCN2CCN(C(c3ccccc3)c3ccccc3)CC2)C1c1cccc([N+](=O)[O-])c1 (centres undefined), the activity change, negative = inhibition was active: -64.4%. With C/C=C/C(=O)OCC(=O)Nc1cccc(F)c1 the activity change, negative = inhibition was inconclusive: -44.9%. In the case of Cc1cc(NCCc2c[nH]c3ccccc23)ccc1Nc1cccnc1, the activity change, negative = inhibition is reported as active: -86.7%. With Cc1onc(-c2ccccc2Cl)c1C(=O)Nc1sc2c(c1C#N)CCC2 the activity change, negative = inhibition was inconclusive: -44.2%. For NS(=O)(=O)c1ccc(CNC(=O)c2cc(S(=O)(=O)N3CCOCC3)ccc2N2CCCC2)cc1, the activity change, negative = inhibition was inactive: -10.4%. In the case of O=C1CN(C(=O)c2ccc(Cl)c(S(=O)(=O)N3CCc4ccccc43)c2)c2ccccc2N1, the activity change, negative = inhibition is reported as inconclusive: -47.2%. In the case of COc1ccc2nc3sc(C(=O)NCCN4CCc5ccccc5C4)cc3cc2c1, the activity change, negative = inhibition is reported as inactive: 7.66%. For COc1ccc(NC(=O)/C=C/c2cccc(Br)c2)cn1, the activity change, negative = inhibition was inactive: 39.2%. With COC(=O)C1=C(N)N(c2ccccc2C(F)(F)F)C2=C(C(=O)CCC2)C1c1ccc2c(c1)OCO2 (centres undefined) the activity change, negative = inhibition was inconclusive: -52.8%. In the case of CCc1nc2ccc(C(=O)Nc3ccc4c(c3)OCC(=O)N4)cn2c1N(C)C(=O)Cc1ccccc1, the activity change, negative = inhibition is reported as inactive: -7.01%. For Cc1c(CC(=O)NCCc2ccc(Cl)cc2)c(=O)oc2c(C)c3occ(C(C)(C)C)c3cc12, the activity change, negative = inhibition was active: -68.3%. In the case of COc1ccc(/C=C2\SC(=S)N(CCCC(=O)Nc3cc(C)on3)C2=O)cc1OC, the activity change, negative = inhibition is reported as inconclusive: -54.9%. For Cc1ccc(S(=O)(=O)N(C)c2ccc(OCC(=O)O)cc2)cc1, the activity change, negative = inhibition was inconclusive: -40.4%. In the case of Cn1c(-c2ccc(F)cc2)cnc1SCC(=O)N1CCCc2ccccc21, the activity change, negative = inhibition is reported as inconclusive: -47.6%. In the case of Cc1c(O)ccc(-c2[nH]ncc2-c2nc3ccccc3s2)c1O, the activity change, negative = inhibition is reported as inconclusive: -55.5%. With CC1CCN(S(=O)(=O)c2ccc(C(=O)OC(C)C(=O)N(C)C3CCCCC3)cc2)CC1 (centres undefined) the activity change, negative = inhibition was inconclusive: -44.3%. For Cc1ccc(-c2nnc3sc(-c4ccncc4)nn23)cc1, the activity change, negative = inhibition was inconclusive: -48.5%.
